Where a chain is given by its changes, count along the chain named. These are yes or no findings as the source states them, for the method shown. In cells and extracts the contact can be indirect. Some binding calls cover weakened binding; strength is not graded here.
Tests used:
[1] = target: Myosin-10 (human) (Homo sapiens) (UniProt P35580); test: co-IP; precipitation with an anti-myosin10 antibody from human control and patient myotube samples; fibronectin detected
[2] = target: T1, FKRP (endogenous, healthy control human myotubes) (human (endogenous in human myotubes)) (UniProt Q9H9S5); test: co-IP; precipitation with a FKRP antibody (10 ug, protein-G dynabeads) from human control and patient myotube membrane-enriched samples; Myosin-10 detected
T1 sequence: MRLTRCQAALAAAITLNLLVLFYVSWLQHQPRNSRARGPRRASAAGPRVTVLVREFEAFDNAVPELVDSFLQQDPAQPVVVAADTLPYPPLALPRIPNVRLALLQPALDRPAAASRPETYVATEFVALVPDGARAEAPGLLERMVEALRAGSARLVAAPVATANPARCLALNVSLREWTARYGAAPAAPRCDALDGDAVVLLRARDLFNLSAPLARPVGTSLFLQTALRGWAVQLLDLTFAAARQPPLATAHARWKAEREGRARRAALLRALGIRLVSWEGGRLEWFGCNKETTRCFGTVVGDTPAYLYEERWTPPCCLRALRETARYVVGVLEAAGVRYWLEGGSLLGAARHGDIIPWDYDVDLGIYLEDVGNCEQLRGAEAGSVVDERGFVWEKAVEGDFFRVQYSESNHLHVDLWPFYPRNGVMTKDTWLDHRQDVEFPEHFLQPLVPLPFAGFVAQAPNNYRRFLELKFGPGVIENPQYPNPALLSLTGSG

By UniProt entry, the sequences of proteins in these tests, tags left out. Residues count along the entry.
UniProt P35580: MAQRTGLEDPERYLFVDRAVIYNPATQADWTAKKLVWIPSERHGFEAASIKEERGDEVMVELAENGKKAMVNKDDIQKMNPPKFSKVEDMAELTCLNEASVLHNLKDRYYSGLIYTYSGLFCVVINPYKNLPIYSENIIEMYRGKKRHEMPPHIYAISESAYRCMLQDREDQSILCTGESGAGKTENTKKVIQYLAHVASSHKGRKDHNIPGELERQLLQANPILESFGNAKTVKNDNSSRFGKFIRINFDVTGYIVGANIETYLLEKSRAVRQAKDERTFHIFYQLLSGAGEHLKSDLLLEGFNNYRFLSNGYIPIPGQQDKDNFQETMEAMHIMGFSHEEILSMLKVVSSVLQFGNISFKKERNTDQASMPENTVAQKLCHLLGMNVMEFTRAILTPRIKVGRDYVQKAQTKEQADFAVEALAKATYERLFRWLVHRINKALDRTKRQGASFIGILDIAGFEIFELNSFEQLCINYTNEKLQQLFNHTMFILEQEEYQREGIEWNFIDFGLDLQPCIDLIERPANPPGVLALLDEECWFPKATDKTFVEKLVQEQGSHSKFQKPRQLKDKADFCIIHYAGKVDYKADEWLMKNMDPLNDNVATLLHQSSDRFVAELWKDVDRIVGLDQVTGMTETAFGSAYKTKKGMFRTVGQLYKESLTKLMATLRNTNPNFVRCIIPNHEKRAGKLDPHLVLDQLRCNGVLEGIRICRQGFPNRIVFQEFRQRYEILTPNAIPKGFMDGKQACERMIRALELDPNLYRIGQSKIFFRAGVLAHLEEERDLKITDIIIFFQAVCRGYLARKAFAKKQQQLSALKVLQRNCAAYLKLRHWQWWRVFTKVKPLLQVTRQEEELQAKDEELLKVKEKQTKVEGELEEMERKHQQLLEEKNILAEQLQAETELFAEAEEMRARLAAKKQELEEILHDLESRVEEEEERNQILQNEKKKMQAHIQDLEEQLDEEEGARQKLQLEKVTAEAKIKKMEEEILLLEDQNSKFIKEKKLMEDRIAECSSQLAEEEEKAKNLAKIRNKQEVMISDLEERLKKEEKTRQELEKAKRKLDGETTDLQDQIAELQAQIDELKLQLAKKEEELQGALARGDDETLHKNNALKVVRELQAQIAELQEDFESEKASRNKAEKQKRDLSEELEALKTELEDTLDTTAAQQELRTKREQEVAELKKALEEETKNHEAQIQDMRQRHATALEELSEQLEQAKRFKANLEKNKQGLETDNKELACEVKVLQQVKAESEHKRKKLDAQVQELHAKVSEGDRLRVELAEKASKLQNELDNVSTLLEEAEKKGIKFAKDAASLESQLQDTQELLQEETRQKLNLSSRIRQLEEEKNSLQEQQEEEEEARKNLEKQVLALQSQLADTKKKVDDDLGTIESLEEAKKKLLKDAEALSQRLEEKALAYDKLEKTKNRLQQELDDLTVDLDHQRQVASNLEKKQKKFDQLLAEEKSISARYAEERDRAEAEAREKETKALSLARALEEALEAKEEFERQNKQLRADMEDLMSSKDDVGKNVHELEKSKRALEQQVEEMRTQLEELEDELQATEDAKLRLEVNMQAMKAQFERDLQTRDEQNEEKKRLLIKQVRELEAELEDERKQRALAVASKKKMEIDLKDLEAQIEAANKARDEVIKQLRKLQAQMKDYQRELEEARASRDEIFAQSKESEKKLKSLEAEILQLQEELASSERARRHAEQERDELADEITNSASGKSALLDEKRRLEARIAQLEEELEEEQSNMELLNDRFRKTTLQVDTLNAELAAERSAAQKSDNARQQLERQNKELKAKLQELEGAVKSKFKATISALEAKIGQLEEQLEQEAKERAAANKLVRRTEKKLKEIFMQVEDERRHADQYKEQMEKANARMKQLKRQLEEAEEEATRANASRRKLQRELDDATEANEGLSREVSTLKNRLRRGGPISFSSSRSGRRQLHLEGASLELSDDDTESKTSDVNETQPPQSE
UniProt P02751, residues 32-2477: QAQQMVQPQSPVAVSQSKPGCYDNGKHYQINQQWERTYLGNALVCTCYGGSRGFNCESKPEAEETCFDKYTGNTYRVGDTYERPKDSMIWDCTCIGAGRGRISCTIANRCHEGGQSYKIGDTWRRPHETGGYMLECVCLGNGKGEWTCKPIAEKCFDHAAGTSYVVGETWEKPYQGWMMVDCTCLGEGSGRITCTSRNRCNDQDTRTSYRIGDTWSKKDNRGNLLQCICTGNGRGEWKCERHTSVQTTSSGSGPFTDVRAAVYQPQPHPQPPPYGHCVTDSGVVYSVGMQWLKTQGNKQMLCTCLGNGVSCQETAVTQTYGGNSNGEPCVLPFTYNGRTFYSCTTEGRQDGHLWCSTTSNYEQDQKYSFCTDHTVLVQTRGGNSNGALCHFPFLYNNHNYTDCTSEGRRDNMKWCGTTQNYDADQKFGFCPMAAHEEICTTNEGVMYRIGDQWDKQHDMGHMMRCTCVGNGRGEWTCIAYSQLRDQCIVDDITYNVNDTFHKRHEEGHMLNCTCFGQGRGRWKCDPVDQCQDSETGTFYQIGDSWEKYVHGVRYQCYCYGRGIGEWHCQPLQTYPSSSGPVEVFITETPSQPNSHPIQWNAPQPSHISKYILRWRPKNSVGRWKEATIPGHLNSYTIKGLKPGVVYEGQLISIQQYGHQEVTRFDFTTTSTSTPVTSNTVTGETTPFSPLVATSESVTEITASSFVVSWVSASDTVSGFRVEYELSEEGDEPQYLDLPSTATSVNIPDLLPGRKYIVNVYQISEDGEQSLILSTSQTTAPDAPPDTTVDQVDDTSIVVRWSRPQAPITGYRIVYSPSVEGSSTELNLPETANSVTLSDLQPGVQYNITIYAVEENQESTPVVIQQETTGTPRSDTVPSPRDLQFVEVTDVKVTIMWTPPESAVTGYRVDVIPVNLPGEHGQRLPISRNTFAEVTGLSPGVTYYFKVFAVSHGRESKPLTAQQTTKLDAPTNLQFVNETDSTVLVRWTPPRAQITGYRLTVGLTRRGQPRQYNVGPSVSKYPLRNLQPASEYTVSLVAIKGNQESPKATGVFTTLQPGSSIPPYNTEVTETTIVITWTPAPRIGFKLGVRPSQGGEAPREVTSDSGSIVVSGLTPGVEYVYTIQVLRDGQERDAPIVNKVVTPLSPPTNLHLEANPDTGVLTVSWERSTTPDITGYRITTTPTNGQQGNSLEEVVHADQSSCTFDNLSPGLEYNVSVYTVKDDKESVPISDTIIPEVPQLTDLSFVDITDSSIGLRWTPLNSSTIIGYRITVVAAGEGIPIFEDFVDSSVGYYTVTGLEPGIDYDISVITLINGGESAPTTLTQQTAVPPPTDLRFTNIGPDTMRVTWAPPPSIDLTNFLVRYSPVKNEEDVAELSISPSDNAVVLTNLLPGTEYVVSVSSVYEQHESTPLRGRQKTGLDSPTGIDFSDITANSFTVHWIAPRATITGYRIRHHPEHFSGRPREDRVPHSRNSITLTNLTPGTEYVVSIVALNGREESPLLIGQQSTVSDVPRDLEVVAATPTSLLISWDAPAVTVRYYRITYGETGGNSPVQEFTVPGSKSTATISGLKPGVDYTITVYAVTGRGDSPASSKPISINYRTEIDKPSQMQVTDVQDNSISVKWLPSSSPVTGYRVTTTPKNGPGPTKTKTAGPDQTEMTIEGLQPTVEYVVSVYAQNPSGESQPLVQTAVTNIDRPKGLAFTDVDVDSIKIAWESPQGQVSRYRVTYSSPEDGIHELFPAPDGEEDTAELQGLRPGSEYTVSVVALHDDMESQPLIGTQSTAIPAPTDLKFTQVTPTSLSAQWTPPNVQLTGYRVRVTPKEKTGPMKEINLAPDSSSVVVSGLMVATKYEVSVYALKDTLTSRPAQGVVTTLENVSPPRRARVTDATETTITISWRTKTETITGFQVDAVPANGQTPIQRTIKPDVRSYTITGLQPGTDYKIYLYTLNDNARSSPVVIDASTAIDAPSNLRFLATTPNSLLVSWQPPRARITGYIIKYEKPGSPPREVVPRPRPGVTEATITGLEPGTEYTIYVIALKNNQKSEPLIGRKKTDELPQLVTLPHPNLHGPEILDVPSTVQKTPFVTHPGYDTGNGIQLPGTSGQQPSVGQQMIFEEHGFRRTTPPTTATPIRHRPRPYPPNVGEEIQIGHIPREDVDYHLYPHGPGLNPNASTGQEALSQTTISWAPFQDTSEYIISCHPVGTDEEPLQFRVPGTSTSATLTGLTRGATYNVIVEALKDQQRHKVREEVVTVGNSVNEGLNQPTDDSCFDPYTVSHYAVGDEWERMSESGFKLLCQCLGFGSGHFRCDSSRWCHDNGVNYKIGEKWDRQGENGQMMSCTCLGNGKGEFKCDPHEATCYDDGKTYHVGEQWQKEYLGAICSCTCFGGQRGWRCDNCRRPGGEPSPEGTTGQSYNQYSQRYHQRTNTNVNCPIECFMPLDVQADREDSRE

[3] = target: T2, FKRP of the LGMD2I patient myotubes (p.Leu276Ile) (human (endogenous in patient myotubes)) (UniProt Q9H9S5); test: as above
T2 sequence: T1 sequence with L276I

Row | binding [1] | binding [2] | binding [3] | Substance
1 | binds | – | – | Fibronectin (endogenous, human myotubes) (from UniProt P02751 32-2477)
2 | – | binds | no binding | Myosin-10 (human) (from UniProt P35580 1-1976)
